Results taken from US20230322880A1 (MEDIKINE, published 2023).
No constants are given. Whether binding was seen depends on the method and setting. Some entries that bind do so weakly or less than the wild type.

Tests used:
[1] = molecular target: T1, hu-Rγc subunit (human) (UniProt P31785); experiment: competition binding ELISA
T1 sequence (looked up): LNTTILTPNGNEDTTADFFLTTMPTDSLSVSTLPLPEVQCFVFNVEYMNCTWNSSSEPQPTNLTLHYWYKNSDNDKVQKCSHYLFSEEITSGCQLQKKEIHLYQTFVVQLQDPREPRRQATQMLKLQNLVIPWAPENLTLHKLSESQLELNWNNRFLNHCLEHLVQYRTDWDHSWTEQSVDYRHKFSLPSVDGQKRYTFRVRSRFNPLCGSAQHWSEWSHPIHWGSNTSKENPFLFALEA

[2] = molecular target: T1, hu-Rγc subunit (human); experiment: competition binding ELISA ('a similar method'); tracer not named

Binder: GWGIPWCTLDPGSLQCAWLGKHGGGGSGGVVCQDWEGVELCWQGG [IL-7Rαγc ligand having SEQ ID NO: 30]
- binding [1]: binds
- binding [2]: binds
